PubChem BioAssay AID504793 – Drosophila RNAi Screening Center | 2011
Aim: 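Knock-downs allowing continued mitosis even though DNA is damaged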 (primary screen). Cell system: Drosophila S2R+ cells. Knock-down reagent: long dsRNA against Drosophila genes, about 0.25 µg dsRNA per well. Timing: 4 days of dsRNA, then 4 hours of drug before read-out. Conditions: doxorubicin 0.5 µM for 4 hours to cause double-strand breaks, in cells also given a low, harmless dose of dsRNA against nbs to sensitise the assay. Measurement: 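Mitotic index as the number of phospho-histone H3-positive cells in each well following doxorubicin, given as raw counts without normalisation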. Scale: mitotic cells: higher = more cells in mitosis, weaker G2 arrest. Rule for the call: 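a call needs confirmation in secondary tests, with other dsRNAs and a check of mitotic timing without damage, not just a high primary count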. Meaning of the calls: active = confirmed in follow-up tests; inactive = not confirmed.
The deposit covers about 23,000 reagents; this is a random part of those that have a named target and a result. Over the whole deposit, 62 (0.27%) got an active call. 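Calls come from follow-up tests whose scores are not deposited, so confirmed genes may have low counts here; counts are not normalised per plate.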 Raw values are not corrected between plates. Reagents against one gene are numbered here.

predicted target,dsRNA no.,"mitotic cells, replicate 1",call
EMC4 (ER membrane protein complex subunit 4),1,12,inactive
EMC4 (ER membrane protein complex subunit 4),2,8,inactive
unc79 (uncoordinated 79),1,8,inactive
unc79 (uncoordinated 79),2,1,inactive
CG5160,1,2,inactive
CG5160,2,14,inactive
CG14259,1,12,inactive
Wdr92 (WD repeat domain 92),1,7,inactive
Ddx56 (DEAD-box helicase 56),1,5,inactive
Ddx56 (DEAD-box helicase 56),2,3,inactive
CG13947,1,,inactive
CG13947,2,6,inactive
CG31955,1,1,inactive
CG10950,1,7,inactive
Cyp9b1 (Cytochrome P450 9b1),1,7,inactive
Cyp9b1 (Cytochrome P450 9b1),2,8,inactive
Ugt35E1 (UDP-glycosyltransferase family 35 member E1),1,4,inactive
Ugt35E1 (UDP-glycosyltransferase family 35 member E1),2,8,inactive
CG14111,1,6,inactive
CG14111,2,5,inactive
ccb (central complex broad),1,6,inactive
lectin-37Db,1,4,inactive
Fbxo42 (F-box protein 42),1,3,inactive
Fbxo42 (F-box protein 42),2,16,inactive
MICU1 (Mitochondrial calcium uptake 1),1,2,inactive
CR9337 (pseudo),1,8,inactive
CR9337 (pseudo),2,27,inactive
CG17896,1,9,inactive
CG17896,2,8,inactive
CG30458,1,9,inactive
homer,1,11,inactive
homer,2,6,inactive
lncRNA:iab4 (long non-coding RNA:iab4),1,8,inactive
lncRNA:iab4 (long non-coding RNA:iab4),2,2,inactive
CG14258,1,7,inactive
CG33543,1,8,inactive
CG33543,2,6,inactive
Cec2 (Cecropin 2),1,6,inactive
Cec2 (Cecropin 2),2,2,inactive
jet (jetlag),1,2,inactive
jet (jetlag),2,7,inactive
CG6839,1,6,inactive
Cyp4e1 (Cytochrome P450 4e1),1,2,inactive
Cyp4e1 (Cytochrome P450 4e1),2,4,inactive
CG30098,1,6,inactive
CG30098,2,7,inactive
phtf,1,15,inactive
phtf,2,1,inactive
CG14191,1,7,inactive
CG14191,2,7,inactive
RpL27A (Ribosomal protein L27A),1,5,inactive
RpL27A (Ribosomal protein L27A),2,3,inactive
tyf (twenty-four),1,11,inactive
tyf (twenty-four),2,4,inactive
CG4324,1,2,inactive
CG4324,2,7,inactive
CG11149,1,1,inactive
CG2533,1,16,inactive
CG2533,2,4,inactive
CG3907,1,12,inactive
CG13658,1,10,inactive
CG13658,2,7,inactive
CG5466,1,10,inactive
CG5466,2,1,inactive
CG8785,1,4,inactive
Diap2 (Death-associated inhibitor of apoptosis 2),1,3,inactive
Diap2 (Death-associated inhibitor of apoptosis 2),2,3,inactive
Oatp26F (Organic anion transporting polypeptide 26F),1,3,inactive
Oatp26F (Organic anion transporting polypeptide 26F),2,3,inactive
Oatp26F (Organic anion transporting polypeptide 26F),3,6,inactive
Oatp26F (Organic anion transporting polypeptide 26F),4,5,inactive
bard,1,9,inactive
MsrA (Methionine sulfoxide reductase A),1,5,inactive
dgt3 (dim gamma-tubulin 3),1,135,inactive
CG3309,1,5,inactive
CG3309,2,10,inactive
